From PubChem BioAssay AID1487 (National Center for Advancing Translational Sciences (NCATS), 2009) come the findings set out here.

This test in a line: qHTS Assay for Modulators of Lamin A Splicing. Conditions: HeLa LMNA splicing GFP/RFP minigene ratio, 48 h. The method in brief:
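S3 HeLa stable clones carrying a lamin A-EGFP splicing minigene plus DsRed2 were seeded at 600 cells/well in Opti-MEM with 2% FBS, pin-dosed and incubated 48 h at 37°C. Acumen cytometry (488 nm) gave the GFP/RFP total-intensity ratio.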
On the technique in general: In qHTS, concentration-response curves come from the screen itself.

[1] abbreviates: measured here: RFP viability control channel.
Setting [2] is: measured here: GFP splicing reporter channel.

This is one part of the list. Further columns of the screen follow, without active or inactive calls. Compounds called inactive in the main read-out are mostly missing here. The note in brackets gives the kind of curve behind each potency; many fits are weak.

A word on the AC50: it is the concentration giving half of the maximal activity seen. Consider `CCc1ccc(Sc2cc(C(=O)O)c3ccccc3n2)cc1`, for which the AC50 under setting [1] was 0.158 µM [falling, full curve, poor fit].

As to `COc1ccc(Cn2c(CO)cnc2SCc2ccc(F)cc2)cc1`, the AC50 under setting [2] was 3.16 µM [falling, partial curve].

On to `Cc1cccc(-c2noc(CN(C(=O)CCc3ccccc3)C(C)C)n2)c1`, for which the AC50 under setting [1] was 15.8 µM [rising, single point].

Turning to `CC(C)(C)N1CC2([N+](=O)[O-])CN(C(C)(C)C)CC([N+](=O)[O-])(C1)C2`, the AC50 under setting [2] is 0.1 µM [rising, full curve].

Regarding `COc1ccc(S(=O)(=O)N2CCSC2c2ccccc2)cc1` (stereo not drawn), under setting [1], the AC50 was 11.2 µM [rising, single point].

Turning to `CCN1C(=O)C2C(c3ccccc3F)NC(Cc3ccc(O)cc3)(C(=O)OC)C2C1=O` (stereo not drawn), the AC50 under setting [1] is 11.2 µM [rising, partial curve, poor fit].

With `Cc1ccc(CN=c2c([N+](=O)[O-])nn(-c3cccc(Cl)c3)n2O)cc1`, under setting [1], the AC50 was 6.31 µM [rising, full curve, poor fit].

Turning to `CS(=O)(=O)c1ccc2nc(NC(=O)CCN3C(=O)c4ccccc4C3=O)sc2c1`, the AC50 under setting [2] is 0.794 µM [falling, full curve, poor fit].

Consider `COc1ccc(/C=C2\N=C(SC)N(c3ccccc3OC)C2=O)cc1`, for which the AC50 was 0.0355 µM [falling, full curve, poor fit] under setting [2] and 0.891 µM [rising, full curve] under setting [1].

On to `CN(CCC#N)C(=O)COC(=O)c1ccccc1C(=O)c1ccc(Cl)c([N+](=O)[O-])c1`, for which the AC50 under setting [1] is 0.0316 µM [falling, full curve, poor fit].

Consider `CCOc1cccc(CC(=O)NCc2ccc3c(c2)CCN3C(C)=O)c1OCC`, for which the AC50 under setting [1] was 11.2 µM [falling, partial curve, poor fit].

`CC(C)C(=O)Nc1ccc(C(=O)N/N=C/c2cc(Br)cc(Br)c2O)cc1`: the AC50 is 35.5 µM [falling, single point] under setting [2] and 15.8 µM [falling, partial curve] under setting [1].

Regarding `CCc1nc(SCC(=O)NNC(=O)C2CCCCC2)c2ccccc2n1`, the AC50 under setting [2] is 0.501 µM [falling, single point].

As for `CN(Cc1ccccc1)c1nc(CN2CCOCC2)nc2scc(-c3ccccc3)c12`, under setting [1], the AC50 was 7.08 µM [rising, single point].

In the case of `Cc1cccc(CNc2ncnc3ccc(-c4cccc(NS(C)(=O)=O)c4)cc23)c1`, the AC50 by setting is: under setting [2], 17.8 µM [falling, partial curve]; under setting [1], 17.8 µM [falling, partial curve].

With `C/C(CC(=O)Nc1ccc(Cl)c(Cl)c1)=N\NC(N)=S`, the AC50 under setting [1] is 35.5 µM [falling, single point].

On to `Cc1cccc(C(=O)c2c(N)sc3c2CCC(C)C3)c1` (stereo not drawn), for which, under setting [1], the AC50 was 25.1 µM [rising, single point].

Consider `COc1cc(CC(=O)OCC(=O)Nc2sccc2C(N)=O)cc(OC)c1OC`, for which the AC50 under setting [2] was 14.1 µM [falling, partial curve].

With `COc1ccc(-c2cc(-c3c(O)c(OC)c4occc4c3OC)[nH]n2)cc1`, the AC50 under setting [2] was 17.8 µM [rising, partial curve, poor fit] and the AC50 under setting [1] was 14.1 µM [rising, single point].

For `COCCNS(=O)(=O)c1ccc(-c2ccc(S(=O)(=O)NCCOC)cc2)cc1`, under setting [1], the AC50 is 0.501 µM [falling, full curve].

For `CCN(CC)S(=O)(=O)c1ccc(NC(=O)c2ccc(N(C)S(C)(=O)=O)cc2)cc1`, the AC50 was 6.31 µM [rising, partial curve] under setting [2] and 6.31 µM [rising, full curve] under setting [1].

On to `C=CCCCCCCCCC(=O)O`, for which the AC50 was 0.00126 µM [rising, full curve, poor fit] under setting [2] and 0.000794 µM [rising, full curve, poor fit] under setting [1].

`CCCOc1cccc(NC(=O)c2c(-c3ccccc3)noc2C)c1`: the AC50 under setting [1] is 35.5 µM [rising, single point].

Turning to `N#Cc1ccccc1NC(=O)C(=O)NCCc1csc2nc(-c3cccc(F)c3)nn12`, under setting [1], the AC50 was 1.12 µM [falling, full curve, poor fit].

In the case of `Cc1ccc2nc(Nc3nc(CSc4nnc(C)s4)cc(=O)[nH]3)nc(C)c2c1`, the AC50 by setting is: under setting [2], 15.8 µM [falling, single point]; under setting [1], 35.5 µM [falling, single point].

For `C=CCn1c(C)cc(C2=NNC(=NCC)SC2)c1C`, the AC50 by setting is: under setting [2], 7.08 µM [rising, partial curve, poor fit]; under setting [1], 17.8 µM [rising, partial curve, poor fit].

For `CCN(CC)c1ncnc2c1ncn2Cc1c(Cl)cccc1Cl`, the AC50 under setting [1] is 35.5 µM [rising, single point].

On to `CCC1Oc2ccc(C)cc2N(Cc2cccc(C)c2)C1=O` (stereo not drawn), for which, under setting [1], the AC50 was 7.08 µM [rising, partial curve, poor fit].

With `Cc1ccc(C(=O)Oc2ccc(Cl)c3cccnc23)cc1[N+](=O)[O-]`, the AC50 under setting [2] is 3.16 µM [falling, single point] and the AC50 under setting [1] is 5.62 µM [falling, single point].

Regarding `O=C(Nc1ccc2c(c1)OCCO2)c1ccc(Br)c(S(=O)(=O)N2CCOCC2)c1`, the AC50 under setting [1] is 20 µM [rising, partial curve, poor fit].

Regarding `CNC(=O)CSc1nnnn1-c1ccc(C)cc1C`, the AC50 under setting [1] was 0.891 µM [rising, single point].

Turning to `CCOCCc1nn2c(=O)cc(COC(=O)Cc3ccccc3)nc2s1`, the AC50 is, setting by setting: under setting [2], 0.282 µM [falling, full curve, poor fit]; under setting [1], 0.316 µM [falling, full curve, poor fit].

On to `Cc1cccc(C(=O)NC(=S)NNC(=O)COc2c(C)cccc2C)c1`, for which the AC50 runs as follows: under setting [2], 35.5 µM [rising, single point]; under setting [1], 31.6 µM [rising, single point].

In the case of `O=C(CSc1ccccc1)Nc1nc2ccccc2[nH]1`, under setting [1], the AC50 is 35.5 µM [rising, single point].

`COc1cccc(/C=N/NC(=O)c2ccc(CN3c4cccc5cccc(c45)S3(=O)=O)cc2)c1`: the AC50 under setting [1] was 20 µM [rising, single point].

Regarding `COc1ccc2occ(C(=O)c3coc4ccc(O)c(CN(C)C)c34)c2c1`, the AC50 by setting is: under setting [2], 35.5 µM [rising, single point]; under setting [1], 17.8 µM [rising, single point].
